Assay results from US20250249092A1 (TORAY INDUSTRIES, published 2025).
Residue numbers refer to the chain shown, from its start. Names and notes keep the numbering of the source. No constants are given. Whether binding was seen depends on the method and setting. Some binding calls cover weakened binding; strength is not graded here. One block for each binder: values may come before it.

Legend:
[1] = target: T1, CAPRIN-1 protein (UniProt Q14444); assay: ELISA
T1 sequence (looked up): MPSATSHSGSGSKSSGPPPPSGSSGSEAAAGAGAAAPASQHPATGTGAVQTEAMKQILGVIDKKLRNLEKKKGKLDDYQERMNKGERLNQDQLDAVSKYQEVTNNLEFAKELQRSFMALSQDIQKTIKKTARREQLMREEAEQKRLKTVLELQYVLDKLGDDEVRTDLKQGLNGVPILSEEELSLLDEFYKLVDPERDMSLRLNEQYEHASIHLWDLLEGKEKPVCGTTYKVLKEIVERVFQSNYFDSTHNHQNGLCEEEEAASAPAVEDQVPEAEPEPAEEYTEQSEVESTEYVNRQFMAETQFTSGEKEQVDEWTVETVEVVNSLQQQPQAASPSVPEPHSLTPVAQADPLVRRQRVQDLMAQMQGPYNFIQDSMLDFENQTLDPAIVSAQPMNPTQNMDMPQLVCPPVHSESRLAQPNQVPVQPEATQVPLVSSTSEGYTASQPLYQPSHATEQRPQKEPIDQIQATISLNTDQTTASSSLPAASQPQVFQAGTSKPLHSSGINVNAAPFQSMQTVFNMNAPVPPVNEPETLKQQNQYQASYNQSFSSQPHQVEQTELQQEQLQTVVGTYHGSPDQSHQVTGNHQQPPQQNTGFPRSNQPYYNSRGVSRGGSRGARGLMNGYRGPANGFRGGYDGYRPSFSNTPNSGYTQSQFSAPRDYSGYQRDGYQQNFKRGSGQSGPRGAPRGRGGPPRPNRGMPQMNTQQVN

[2] = target: T2, CAPRIN-1 protein on the cell membrane surface of cancer cells (UniProt Q14444); assay: flow cytometry
T2 sequence (looked up): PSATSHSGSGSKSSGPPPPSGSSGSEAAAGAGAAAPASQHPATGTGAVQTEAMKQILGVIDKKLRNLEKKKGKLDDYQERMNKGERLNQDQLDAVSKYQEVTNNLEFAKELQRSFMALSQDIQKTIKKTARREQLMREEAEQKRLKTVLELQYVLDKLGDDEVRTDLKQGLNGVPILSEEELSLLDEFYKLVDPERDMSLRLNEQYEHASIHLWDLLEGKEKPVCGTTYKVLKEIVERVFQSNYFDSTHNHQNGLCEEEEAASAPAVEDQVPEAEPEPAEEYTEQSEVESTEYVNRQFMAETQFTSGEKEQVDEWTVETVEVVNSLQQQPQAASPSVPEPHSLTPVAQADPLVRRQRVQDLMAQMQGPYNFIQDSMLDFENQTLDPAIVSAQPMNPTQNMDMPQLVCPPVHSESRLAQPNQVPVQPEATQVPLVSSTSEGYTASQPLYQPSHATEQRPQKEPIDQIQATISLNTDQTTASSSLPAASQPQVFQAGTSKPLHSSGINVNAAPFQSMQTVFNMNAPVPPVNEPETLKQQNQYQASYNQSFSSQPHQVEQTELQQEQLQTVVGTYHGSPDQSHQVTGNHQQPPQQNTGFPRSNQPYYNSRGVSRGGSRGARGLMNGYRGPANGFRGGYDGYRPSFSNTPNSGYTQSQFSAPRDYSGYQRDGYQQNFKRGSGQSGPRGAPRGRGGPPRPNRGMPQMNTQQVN

binding [1]: binds
binding [2]: binds
B1: Conjugate 111 (antibody, human IgG1, V domains shown)
VH: AVTLDESGGGLQTPGGALSLVCKASGFTFSGYDMLWVRQAPGKGLEWVAGIGSTGGGTDYGAAVKGRATISRDNGQSTVRLQLNNLRAEDTATYYCAKVAGGCNSGYCRDSPGSIDAWGHGTEVIVS
VL: AVTQQPASVSANPGETVKITCSGGGSRNYYGWYQQKSPGSVPVTVIYYDDQRPSNIPSRFSGALSGSTSTLTITGVQADDEAVYFCGSADSNTYEGSFGAGTTLTVL

binding [1]: binds
binding [2]: binds
B2: Conjugate 144 (antibody, human IgG1, V domains shown)
VH: B1 VH
VL: B1 VL

binding [1]: binds
binding [2]: binds
B4: Conjugate 108 (antibody, human IgG1, V domains shown)
VH: EVQLVESGGGLVQPGGSLRLSCAASGFSLSSHSLGWVRQAPGKGLEWIGDIRSGGSAYYANWAKGRFTISRDNSKNTLYLQMNSLRAEDTAVYFCTRTNGPSDLTNRLDLWGQGTLVTVSS
VL: EIVLTQSPSSLSASVGDRVTINCQASQSLYNNENLAWFQQKPGKVPKRLIYGASTLASGVSSRFSGSGSGTEFTLTISNLQPEDFATYYCLGEFSCGSADCFAFGGGTKVEIK

binding [1]: binds
binding [2]: binds
B7: Conjugate 140 (antibody, human IgG1, V domains shown)
VH: B4 VH with F94Y
VL: B4 VL with I2Q, T87I

binding [1]: binds
binding [2]: binds
B9: Conjugate 110 (antibody, human IgG1, V domains shown)
VH: B4 VH
VL: B4 VL with I2Q, T87I

binding [1]: binds
binding [2]: binds
B12: Conjugate 109 (antibody, human IgG1, V domains shown)
VH: B4 VH with F94Y
VL: B4 VL

binding [1]: binds
binding [2]: binds
B13: Conjugate 12 (antibody, human IgG1, V domains shown)
VH: B4 VH with V2Q, Q3S, F94Y
VL: QVLTQSPSSLSASVGDRVTINCQASQSLYNNENLAWFQQKPGKVPKRLIYGASTLASGVSSRFSGSGSGTEFTLTISSLQCEDFAIYYCLGEFSCGSADCFAFGGGTKVEIK
notes: humanized antibody #6 (V regions of #2; human IgG1 S239D/I332E) + resiquimod, MC-Val-Cit-PAB linker

binding [1]: binds
binding [2]: binds
B14: Conjugate 26 (antibody, human IgG1, V domains shown)
VH: B4 VH with V2Q, Q3S, F94Y
VL: B13 VL
notes: humanized antibody #6 (V regions of #2; human IgG1 S239D/I332E) + resiquimod derivative, SATA and SMCC linkers

binding [1]: binds
binding [2]: binds
B15: Conjugate 34 (antibody, V domains shown)
VH: B4 VH with V2Q, Q3S, F94Y
VL: B13 VL
notes: mouse chimeric antibody #2 (mouse IgG constant regions) + resiquimod derivative, SATA and SMCC linkers

binding [1]: binds
binding [2]: binds
B17: Conjugate 22 (antibody, human IgG1, V domains shown)
VH: B4 VH with V2Q, Q3S, F94Y
VL: B13 VL
notes: humanized antibody #2 (human IgG1) + resiquimod derivative, SATA and SMCC linkers

binding [1]: binds
binding [2]: binds
B19: Conjugate 115 (antibody, human IgG1, V domains shown)
VH: GAELVRSGASVKMSCKASGYSFTDYNMYWVKQTPGQGLEWIGYIYPGNGGTNYNQKFKGKATLTADTSSSTAYMQISSLTSEDSAVYFCARDYDDGGYAMDYWGQGTTVTVSS
VL: DIQMTQSPASLSASVGETVTITCRASGNIHNYLTWYQQKQGKSPQLLVYNAKTLADGVPSRFSGSGSGTQYSLKINRLQPEDFGSYYCQHFWNIPWTFGGGTKLNSR

binding [1]: binds
binding [2]: binds
B20: Conjugate 148 (antibody, human IgG1, V domains shown)
VH: B19 VH
VL: B19 VL

binding [1]: binds
binding [2]: binds
B21: Conjugate 121 (antibody, human IgG1, V domains shown)
VH: EVQLHQFGAELVKPGASVKISCKASGYTFTDYNMDWVKQSHGKSLEWIGDINPNYDSTSYNQKFKGKATLTVDKSSSTAYMELRSLTSEDTAVYYCARSRSYDYEGFAYWGQGTLVTVSA
VL: DIQMTQSPASLSASVGETVTITCRASGNIHNYLAWYQQKQGKSPQLLVYNAKTLADGVPSRFSGSGSGTQYSLKINSLQPEDFGSYYCQHFWSTLTFGAGTKLELKR

The remaining lines, values behind:

B3: Conjugate 132 (antibody, human IgG1, V domains shown)
VH: GPDLVKPGASVKISCKASGYSFTAYYMHWVKQSHGKSLEWIGRVNPNNGGTTYNQKFKGKAILTVDKSSSTAYMELRSLTFEDSAVYYCARRIYYGYFDYWGQGTTVTVSS
VL: AFFAVSLGQRATISCKASQSVDYDGDSYMNWYQQKPGQPPKLLIYVASNLESGVPARFSGSGSGTDFTLNIHPVEEEDAATYYCQQSNEDPYTFGGGTKLEIKQ
binding [1]: binds
binding [2]: binds

B5: Conjugate 142 (antibody, human IgG1, V domains shown)
VH: B4 VH with F94Y
VL: B4 VL
binding [1]: binds
binding [2]: binds

B6: Conjugate 138 (antibody, human IgG1, V domains shown)
VH: B4 VH with F94Y
VL: B13 VL
binding [1]: binds
binding [2]: binds

B8: Conjugate 143 (antibody, human IgG1, V domains shown)
VH: B4 VH
VL: B4 VL with I2Q, T87I
binding [1]: binds
binding [2]: binds

B10: Conjugate 141 (antibody, human IgG1, V domains shown)
VH: B4 VH
VL: B4 VL
binding [1]: binds
binding [2]: binds

B11: Conjugate 139 (antibody, human IgG1, V domains shown)
VH: B4 VH
VL: B13 VL
binding [1]: binds
binding [2]: binds

B16: Conjugate 8 (antibody, human IgG1, V domains shown)
VH: B4 VH with V2Q, Q3S, F94Y
VL: B13 VL
notes: humanized antibody #2 (human IgG1) + resiquimod, MC-Val-Cit-PAB linker
binding [1]: binds
binding [2]: binds

B18: Conjugate 30 (antibody, V domains shown)
VH: B4 VH with V2Q, Q3S, F94Y
VL: B13 VL
notes: mouse chimeric antibody #2 (mouse IgG constant regions) + resiquimod, MC-Val-Cit-PAB linker
binding [1]: binds
binding [2]: binds

B22: Conjugate 116 (antibody, human IgG1, V domains shown)
VH: DAELVKPGASVKISCKASGYTFTDHSIHWVQQKPEQGLEWIGYISPGNGNIKYNEKFKGKATLTADKSSSTAYMQLNSLTSEDSAVYFCKRSLGRGGPYYFDYWGQGTTVTVSS
VL: DIVLTQAAPSLPVTPGESVSISCRSSKSLLHSNGNTYLYWFLQRPGQSPQLLIYRMSNLASGVPDRFSGSGSGTAFTLRISRVEAEDVGVYYCMQHREYPVTFGSGPN
binding [1]: binds
binding [2]: binds
